Measurements as given in paper PMC7747717.
Results are given in words; binding and its absence hold for the method and conditions named. For some assays here: Binding seen in cells or lysates may run through a third protein. Some results given as binding are weak or reduced against the parent protein; the word gives no strength. For some assays here: Sequences can lack the tags named with a protein.

T1: HA-tagged full-length RPC5 (human) (UniProt Q9NVU0)
T1 sequence: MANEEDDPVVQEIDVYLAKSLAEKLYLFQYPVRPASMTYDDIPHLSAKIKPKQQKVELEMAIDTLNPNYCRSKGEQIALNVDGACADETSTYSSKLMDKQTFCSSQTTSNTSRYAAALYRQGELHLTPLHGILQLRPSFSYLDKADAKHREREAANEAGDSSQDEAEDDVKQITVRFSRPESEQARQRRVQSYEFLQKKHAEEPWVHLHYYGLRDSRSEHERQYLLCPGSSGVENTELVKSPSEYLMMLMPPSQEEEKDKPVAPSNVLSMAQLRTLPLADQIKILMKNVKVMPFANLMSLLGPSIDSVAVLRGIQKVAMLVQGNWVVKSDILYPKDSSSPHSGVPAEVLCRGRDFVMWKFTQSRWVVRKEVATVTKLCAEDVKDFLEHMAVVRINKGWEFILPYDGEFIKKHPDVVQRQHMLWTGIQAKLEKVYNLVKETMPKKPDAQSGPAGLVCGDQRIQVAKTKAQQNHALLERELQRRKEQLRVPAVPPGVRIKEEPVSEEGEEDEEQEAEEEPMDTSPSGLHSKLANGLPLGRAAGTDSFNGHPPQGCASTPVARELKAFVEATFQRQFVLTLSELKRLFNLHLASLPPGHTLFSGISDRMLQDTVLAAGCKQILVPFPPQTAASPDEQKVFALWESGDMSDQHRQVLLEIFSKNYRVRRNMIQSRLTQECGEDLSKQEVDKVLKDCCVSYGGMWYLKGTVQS


Legend:
RPC5 (556–708) (human) = RPC5 (556–708) (human) (UniProt Q9NVU0); experiment: SEC-SAXS; tWHD2 loaded at 3691 μM on a Bio SEC-3 HPLC column, 50 mM Tris-HCl pH 7.5, 150 mM NaCl, 10 mM β-mercaptoethanol; crystal models compared with the scattering by CRYSOL; both purified
[1] = target: SeMet-RPC5 (556–708) (human) (UniProt Q9NVU0); experiment: crystal structure; SeMet-RPC5 (556–708), 3.2–3.8 M ammonium acetate, 100 mM Bis-Tris propane pH 6.5–7, 4 °C, space group P2(1); both purified
[2] = target: T1, HA-tagged full-length RPC5 (human); experiment: co-IP; HEK293T cells with siRNA knock-down of endogenous RPC5, transfected with HA-tagged RPC5 constructs, RIPA lysate, anti-HA magnetic beads, western blot

| binding [2] | Binder | other results |
| --- | --- | --- |
|  | RPC5 (556–708) (domain or fragment, UniProt Q9NVU0 556-708) TPVARELKAFVEATFQRQFVLTLSELKRLFNLHLASLPPGHTLFSGISDRMLQDTVLAAGCKQILVPFPPQTAASPDEQKVFALWESGDMSDQHRQVLLEIFSKNYRVRRNMIQSRLTQECGEDLSKQEVDKVLKDCCVSYGGMWYLKGTVQS | binding (RPC5 (556–708) (human)): no binding (tested: 3691 μM) |
|  | SeMet-RPC5 (556–708) (domain or fragment, UniProt Q9NVU0 556-708, selenomethionine in place of methionine) TPVARELKAFVEATFQRQFVLTLSELKRLFNLHLASLPPGHTLFSGISDRMLQDTVLAAGCKQILVPFPPQTAASPDEQKVFALWESGDMSDQHRQVLLEIFSKNYRVRRNMIQSRLTQECGEDLSKQEVDKVLKDCCVSYGGMWYLKGTVQS | binding [1]: no binding |
| binds | RPC4, endogenous in HEK293T cells (protein, UniProt P05423 1-398) MSEGNAAGEPSTPGGPRPLLTGARGLIGRRPAPPLTPGRLPSIRSRDLTLGGVKKKTFTPNIISRKIKEEPKEEVTVKKEKRERDRDRQREGHGRGRGRPEVIQSHSIFEQGPAEMMKKKGNWDKTVDVSDMGPSHIINIKKEKRETDEETKQILRMLEKDDFLDDPGLRNDTRNMPVQLPLAHSGWLFKEENDEPDVKPWLAGPKEEDMEVDIPAVKVKEEPRDEEEEAKMKAPPKAARKTPGLPKDVSVAELLRELSLTKEEELLFLQLPDTLPGQPPTQDIKPIKTEVQGEDGQVVLIKQEKDREAKLAENACTLADLTEGQVGKLLIRKSGRVQLLLGKVTLDVTMGTACSFLQELVSVGLGDSRTGEMTVLGHVKHKLVCSPDFESLLDHKHR |  |
| binds | RPC2, endogenous in HEK293T cells (protein, UniProt Q9NW08 1-1133) MDVLAEEFGNLTPEQLAAPIPTVEEKWRLLPAFLKVKGLVKQHIDSFNYFINVEIKKIMKANEKVTSDADPMWYLKYLNIYVGLPDVEESFNVTRPVSPHECRLRDMTYSAPITVDIEYTRGSQRIIRNALPIGRMPIMLRSSNCVLTGKTPAEFAKLNECPLDPGGYFIVKGVEKVILIQEQLSKNRIIVEADRKGAVGASVTSSTHEKKSRTNMAVKQGRFYLRHNTLSEDIPIVIIFKAMGVESDQEIVQMIGTEEHVMAAFGPSLEECQKAQIFTQMQALKYIGNKVRRQRMWGGGPKKTKIEEARELLASTILTHVPVKEFNFRAKCIYTAVMVRRVILAQGDNKVDDRDYYGNKRLELAGQLLSLLFEDLFKKFNSEMKKIADQVIPKQRAAQFDVVKHMRQDQITNGMVNAISTGNWSLKRFKMDRQGVTQVLSRLSYISALGMMTRISSQFEKTRKVSGPRSLQPSQWGMLCPSDTPEGEACGLVKNLALMTHITTDMEDGPIVKLASNLGVEDVNLLCGEELSYPNVFLVFLNGNILGVIRDHKKLVNTFRLMRRAGYINEFVSISTNLTDRCVYISSDGGRLCRPYIIVKKQKPAVTNKHMEELAQGYRNFEDFLHESLVEYLDVNEENDCNIALYEHTINKDTTHLEIEPFTLLGVCAGLIPYPHHNQSPRNTYQCAMGKQAMGTIGYNQRNRIDTLMYLLAYPQKPMVKTKTIELIEFEKLPAGQNATVAVMSYSGYDIEDALVLNKASLDRGFGRCLVYKNAKCTLKRYTNQTFDKVMGPMLDAATRKPIWRHEILDADGICSPGEKVENKQVLVNKSMPTVTQIPLEGSNVPQQPQYKDVPITYKGATDSYIEKVMISSNAEDAFLIKMLLRQTRRPEIGDKFSSRHGQKGVCGLIVPQEDMPFCDSGICPDIIMNPHGFPSRMTVGKLIELLAGKAGVLDGRFHYGTAFGGSKVKDVCEDLVRHGYNYLGKDYVTSGITGEPLEAYIYFGPVYYQKLKHMVLDKMHARARGPRAVLTRQPTEGRSRDGGLRLGEMERDCLIGYGASMLLLERLMISSDAFEVDVCGQCGLLGYSGWCHYCKSSCHVSSLRIPYACKLLFQELQSMNIIPRLKLSKYNE |  |
| binds | RPC1, endogenous in HEK293T cells (protein, UniProt O14802 1-1390) MVKEQFRETDVAKKISHICFGMKSPEEMRQQAHIQVVSKNLYSQDNQHAPLLYGVLDHRMGTSEKDRPCETCGKNLADCLGHYGYIDLELPCFHVGYFRAVIGILQMICKTCCHIMLSQEEKKQFLDYLKRPGLTYLQKRGLKKKISDKCRKKNICHHCGAFNGTVKKCGLLKIIHEKYKTNKKVVDPIVSNFLQSFETAIEHNKEVEPLLGRAQENLNPLVVLNLFKRIPAEDVPLLLMNPEAGKPSDLILTRLLVPPLCIRPSVVSDLKSGTNEDDLTMKLTEIIFLNDVIKKHRISGAKTQMIMEDWDFLQLQCALYINSELSGIPLNMAPKKWTRGFVQRLKGKQGRFRGNLSGKRVDFSGRTVISPDPNLRIDEVAVPVHVAKILTFPEKVNKANINFLRKLVQNGPEVHPGANFIQQRHTQMKRFLKYGNREKMAQELKYGDIVERHLIDGDVVLFNRQPSLHKLSIMAHLARVKPHRTFRFNECVCTPYNADFDGDEMNLHLPQTEEAKAEALVLMGTKANLVTPRNGEPLIAAIQDFLTGAYLLTLKDTFFDRAKACQIIASILVGKDEKIKVRLPPPTILKPVTLWTGKQIFSVILRPSDDNPVRANLRTKGKQYCGKGEDLCANDSYVTIQNSELMSGSMDKGTLGSGSKNNIFYILLRDWGQNEAADAMSRLARLAPVYLSNRGFSIGIGDVTPGQGLLKAKYELLNAGYKKCDEYIEALNTGKLQQQPGCTAEETLEALILKELSVIRDHAGSACLRELDKSNSPLTMALCGSKGSFINISQMIACVGQQAISGSRVPDGFENRSLPHFEKHSKLPAAKGFVANSFYSGLTPTEFFFHTMAGREGLVDTAVKTAETGYMQRRLVKSLEDLCSQYDLTVRSSTGDIIQFIYGGDGLDPAAMEGKDEPLEFKRVLDNIKAVFPCPSEPALSKNELILTTESIMKKSEFLCCQDSFLQEIKKFIKGVSEKIKKTRDKYGINDNGTTEPRVLYQLDRITPTQVEKFLETCRDKYMRAQMEPGSAVGALCAQSIGEPGTQMTLKTFHFAGVASMNITLGVPRIKEIINASKAISTPIITAQLDKDDDADYARLVKGRIEKTLLGEISEYIEEVFLPDDCFILVKLSLERIRLLRLEVNAETVRYSICTSKLRVKPGDVAVHGEAVVCVTPRENSKSSMYYVLQFLKEDLPKVVVQGIPEVSRAVIHIDEQSGKEKYKLLVEGDNLRAVMATHGVKGTRTTSNNTYEVEKTLGIEAARTTIINEIQYTMVNHGMSIDRRHVMLLSDLMTYKGEVLGITRFGLAKMKESVLMLASFEKTADHLFDAAYFGQKDSVCGVSECIIMGIPMNIGTGLFKLLHKADRDPNPPKRPLIFDTNEFHIPLVT |  |
